According to paper PMC6821256:
Where a chain is given by its changes, count along the chain named. No constants are given. Whether binding was seen depends on the method and setting. For some assays here: In cells and extracts the contact can be indirect. Some results given as binding are weak or reduced against the parent protein; the word gives no strength. Where a sequence is shown, tags or fusion partners need not be part of it. Values belong to the binder of their own block, whether it stands above or below them.

Key:
[1] = molecular target: T1, Rec15 full-length (FL, 1-180; yeast two-hybrid construct) (Schizosaccharomyces pombe) (UniProt Q09094); experiment: two-hybrid; S. cerevisiae AH109, pGADT7 and pGBKT7 plasmids; growth on SD without leucine, tryptophan, histidine and adenine, 5 days at 30°C
T1 sequence: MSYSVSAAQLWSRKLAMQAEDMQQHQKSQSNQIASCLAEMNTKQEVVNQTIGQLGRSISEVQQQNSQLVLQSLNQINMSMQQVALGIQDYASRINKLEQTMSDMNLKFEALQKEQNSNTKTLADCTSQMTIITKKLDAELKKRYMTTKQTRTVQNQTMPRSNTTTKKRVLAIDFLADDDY

[2] = molecular target: T2, Rec10 (yeast two-hybrid construct) (Schizosaccharomyces pombe) (UniProt Q09823); experiment: as above
T2 sequence: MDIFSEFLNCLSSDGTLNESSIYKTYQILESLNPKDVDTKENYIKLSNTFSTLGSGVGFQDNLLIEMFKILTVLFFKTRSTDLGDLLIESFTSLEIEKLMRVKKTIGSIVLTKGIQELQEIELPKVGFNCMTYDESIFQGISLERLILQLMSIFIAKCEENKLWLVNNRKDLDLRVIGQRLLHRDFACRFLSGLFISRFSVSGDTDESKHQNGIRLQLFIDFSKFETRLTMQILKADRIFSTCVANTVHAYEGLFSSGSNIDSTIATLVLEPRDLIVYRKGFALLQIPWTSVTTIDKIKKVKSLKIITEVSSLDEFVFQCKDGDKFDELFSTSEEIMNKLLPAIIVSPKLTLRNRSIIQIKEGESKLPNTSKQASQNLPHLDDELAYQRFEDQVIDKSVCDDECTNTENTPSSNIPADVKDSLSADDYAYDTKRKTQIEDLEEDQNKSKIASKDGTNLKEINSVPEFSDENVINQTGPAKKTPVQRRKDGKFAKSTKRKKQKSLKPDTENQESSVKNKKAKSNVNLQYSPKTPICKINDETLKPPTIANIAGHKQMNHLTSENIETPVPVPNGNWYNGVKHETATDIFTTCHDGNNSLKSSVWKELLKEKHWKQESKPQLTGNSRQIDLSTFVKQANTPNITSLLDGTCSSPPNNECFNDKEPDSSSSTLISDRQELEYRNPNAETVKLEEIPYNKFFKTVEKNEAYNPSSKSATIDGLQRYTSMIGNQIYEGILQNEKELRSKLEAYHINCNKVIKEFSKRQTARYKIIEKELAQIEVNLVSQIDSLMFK

[3] = molecular target: T3, Rec10-E309A (yeast two-hybrid construct) (Schizosaccharomyces pombe) (UniProt Q09823); experiment: as above
T3 sequence: T2 sequence with E309A

[4] = molecular target: T4, Rec10-P348G K349G (yeast two-hybrid construct) (Schizosaccharomyces pombe) (UniProt Q09823); experiment: as above
T4 sequence: T2 sequence with P348G, K349G

[5] = molecular target: T5, Mde2 (yeast two-hybrid construct) (Schizosaccharomyces pombe) (UniProt P87309); experiment: as above
T5 sequence: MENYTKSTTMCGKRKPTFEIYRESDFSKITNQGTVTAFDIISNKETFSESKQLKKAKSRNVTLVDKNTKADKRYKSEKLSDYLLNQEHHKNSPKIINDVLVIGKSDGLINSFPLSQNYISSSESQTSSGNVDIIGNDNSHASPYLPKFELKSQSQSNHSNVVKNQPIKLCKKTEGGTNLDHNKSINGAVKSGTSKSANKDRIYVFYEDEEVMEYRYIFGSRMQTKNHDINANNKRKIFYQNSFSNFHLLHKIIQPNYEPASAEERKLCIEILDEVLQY

[6] = molecular target: T6, Rec10-E309A (expressed in S. pombe) (Schizosaccharomyces pombe) (UniProt Q09823); experiment: co-IP; S. pombe cells harvested 4 h after meiotic induction; immunoprecipitation of the FLAG-tagged Rec10, blot for Hop1-HA; not cross-linked
T6 sequence: T2 sequence with E309A

[7] = molecular target: T7, Rec10-FLAG (Schizosaccharomyces pombe) (UniProt Q09823); experiment: as above
T7 sequence: T2 sequence

[8] = molecular target: T8, Rec10-P348G K349G (expressed in S. pombe) (Schizosaccharomyces pombe) (UniProt Q09823); experiment: as above
T8 sequence: T2 sequence with P348G, K349G

[9] = molecular target: T9, Rec15-FLAG (Schizosaccharomyces pombe) (UniProt Q09094); experiment: co-IP; cross-linked co-IP: S. pombe cells treated with 1% formaldehyde 4 h after meiotic induction; anti-FLAG IP after micrococcal nuclease treatment
T9 sequence: T1 sequence

[10] = molecular target: T10, Rec15ΔCT-FLAG (Schizosaccharomyces pombe) (UniProt Q09094); experiment: as above
T10 sequence: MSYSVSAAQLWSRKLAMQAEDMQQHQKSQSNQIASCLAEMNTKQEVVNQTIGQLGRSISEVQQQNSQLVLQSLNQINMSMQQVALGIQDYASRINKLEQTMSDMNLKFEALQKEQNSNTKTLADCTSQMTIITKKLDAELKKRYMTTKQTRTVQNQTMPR

B2: Hop1 N fragment (1-300) (domain or fragment, UniProt Q9P7P2 1-300)
chain: MNSYKEEILQTKSDFTLKNLIFFAISTLCYKRALFNENCYKKVNFEIEHFKGADFDCQLKPTVVSLQAGVDKEADSFLEMMKTYIFSLVSMKVPFTVYLIISSQCKSILEDDAVEKEIFSFTINPGSEEKICCESFVSYQRSERFVIKLFLSGNVKTECKDEEKVVQIITKMERFQLSKGEATKAGVFLNTVETKDCMSWLNRGEFKDIVSFYESNNGIAISHCSHAFVPISTEKIMINKESSLFDSQEKIDSQLEKFLQPLKYDEIGSTQILDEQSVEKSLSQGKCEKMQNESRGLREI
- binding [2]: binds

B4: Rec15ΔCT (1-160; yeast two-hybrid construct) (domain or fragment, UniProt Q09094 1-160)
chain: T10 sequence
- binding [5]: binds
- binding [1]: binds

B5: Hop1 full-length (yeast two-hybrid construct) (protein, UniProt Q9P7P2 1-528)
chain: MNSYKEEILQTKSDFTLKNLIFFAISTLCYKRALFNENCYKKVNFEIEHFKGADFDCQLKPTVVSLQAGVDKEADSFLEMMKTYIFSLVSMKVPFTVYLIISSQCKSILEDDAVEKEIFSFTINPGSEEKICCESFVSYQRSERFVIKLFLSGNVKTECKDEEKVVQIITKMERFQLSKGEATKAGVFLNTVETKDCMSWLNRGEFKDIVSFYESNNGIAISHCSHAFVPISTEKIMINKESSLFDSQEKIDSQLEKFLQPLKYDEIGSTQILDEQSVEKSLSQGKCEKMQNESRGLREIKNNNPCEEVKKSNWLKKNISGSDKVDKAEKKKALLNCECGDSTEDSEMFQCERCDGWVHCACYGFESDSDPRQPNQLLCYTCLLVDSESSLYDRMTMLVAYRRAIRCIWASEYQGFQKLAARLNCSYADAKRIEERLVNENIIYKEKKRKWIYFTNKSPEMVSYLREKYFTPSRWISHLNFQNYRQENQRVNMRSFLRPERMEVIERPKKVSKTSNTKETDTMKPLRI
- binding [2]: binds
- binding [1]: binds

B6: Hop1-HA (protein, UniProt Q9P7P2 1-528)
chain: B5 chain
- binding [6]: binds
- binding [7]: binds
- binding [8]: binds
- binding [9]: binds
- binding [10]: binds weakly

The next lines start with the values.

- binding [1]: binds
B1: Hop1 C fragment (301-527) (domain or fragment, UniProt Q9P7P2 301-527)
chain: KNNNPCEEVKKSNWLKKNISGSDKVDKAEKKKALLNCECGDSTEDSEMFQCERCDGWVHCACYGFESDSDPRQPNQLLCYTCLLVDSESSLYDRMTMLVAYRRAIRCIWASEYQGFQKLAARLNCSYADAKRIEERLVNENIIYKEKKRKWIYFTNKSPEMVSYLREKYFTPSRWISHLNFQNYRQENQRVNMRSFLRPERMEVIERPKKVSKTSNTKETDTMKPLR

- binding [2]: binds
- binding [3]: binds
- binding [4]: binds
B3: Rec25 (yeast two-hybrid construct) (protein, UniProt Q9C115 1-150)
chain: MVKGSVTNTSSIVKQFEKSSIKHETETIAFAKQFINECIREFQEQKDNVVEEKNTDQNHQNQNQEGVIIEIYQELLQKVDLISSELRQNLSSLQLRFQEVERDTGHDLLNVLNSLSQEARLAQKVLEEDGSQQGSQLIQGLLTCFQSTGN
